# Test results: PubChem BioAssay AID504467 (National Center for Advancing Translational Sciences (NCATS), 2011)
# Among all 330,000 compounds or so, about 7,700 (2.3%) were called active. Inconclusive results, whose numbers are uncertain, are shown with a selection of clear calls. Calls come from the whole dose curve; as a rule, active = well fitted inhibition curve with a large enough effect; inconclusive = small, poorly fitted or top-dose-only effect, or effect the other way; inactive = flat fitted curve, though single readings scatter. Where the call is inconclusive, the potency comes from a doubtful curve fit.
# Experiment: qHTS screen for small molecules that inhibit ELG1-dependent DNA repair in human embryonic kidney (HEK293T) cells expressing luciferase-tagged ELG1; note: nearly all actives have a fitted effect of over 55% in size
# Conditions: HEK293T ELG1-luciferase reporter, luminescence, 16 h, DNA damage induced by 5-fluorouridine; activity change, negative = inhibition: at 46.1 µM (top of the series)
# How it was run: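 DMSO vehicle served as the neutral condition. Each well held 2,000 cells given 5-fluorouridine plus compound; after 16 hr at 37 °C/5% CO2, ONE-Glo was added and luciferase measured 30 min later.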
# % is set by controls: 0 for no effect and ±100 for the full control effect; potency is the fitted concentration of half-maximal effect.
Structure (SMILES),Potency,"activity change, negative = inhibition"
O=C(NCc1ccncc1)c1ccc(Cl)c(S(=O)(=O)N2CCCCC2)c1,"inconclusive: 14.6 µM [inhibitor, partial curve]",–
O=C1/C(=C\c2ccco2)NC(=S)N1c1ccccc1,"inconclusive: 23.1 µM [activator, single point]",–
CCc1cccc2c(N=O)c(O)[nH]c12,–,inactive: 12.9%
O=S(=O)(Nc1cccc(-c2ccc3nncn3n2)c1)c1cc(F)ccc1F,–,inactive: 13.7%
Cc1ccc(NC(=O)N2CCCCCC2)c(C)c1,"inconclusive: 20.6 µM [activator, partial curve]",–
COc1ccc(OC)c(-c2csc(N(Cc3ccco3)C(=O)c3ccco3)n2)c1,active: 18.3 µM,–
O=C(N1CCCC1)N1CCN(c2ncnc3c(-c4ccc(Cl)cc4)nsc23)CC1,"inconclusive: 29.1 µM [activator, single point]",–
C=CCc1cc(C)ccc1OCCOCCN1CCN(C)CC1,–,inactive: 3.33%
Oc1cccc(/C=N/Nc2ncnc3c2ncn3Cc2ccccc2)c1,"inconclusive: 16.4 µM [activator, single point]",–
CCOC(=O)c1c(NC(=O)CN2C(=O)NC3(CCCCC3C)C2=O)sc(C)c1C (configuration not stated),"inconclusive: 32.6 µM [inhibitor, partial curve, poor fit]",–
COc1ccc(C(=O)C2CCCN(Cc3cccn3-c3ccccn3)C2)c(C)c1 (configuration not stated),"inconclusive: 29.1 µM [inhibitor, single point]",–
C=CCn1c(SCc2c(C(=O)OC)sc(N)c2C(=O)OC)nnc1-c1ccc(Cl)cc1,active: 23.1 µM,–
O=C(Nc1ccc2c(c1)OCO2)c1ccc(Cl)c(S(=O)(=O)N2CCOCC2)c1,–,inactive: -4.97%
C=CCNC(=S)N1CCC(C(=O)c2ccc3c(c2)OCCO3)CC1,–,inactive: -6.19%
CN(C)CCCNC(=O)C[C@H]1C[C@H](C(=O)N2CCCCC2)[C@@]2(CCc3ccccc3)c3[nH]c4cc(CCC(=O)N(C)C)ccc4c3CCN2C1=O,–,inactive: 22.5%
Cn1cccc1C(=O)OCC(=O)Nc1ccc2c(c1)OCCO2,"inconclusive: 1.16 µM [activator, partial curve]",–
Cc1cccc(CN2CCN(C3CCCC3)C(CCO)C2)n1 (configuration not stated),"inconclusive: 18.3 µM [inhibitor, partial curve, poor fit]",–
Cc1ccc2nc(C(O)C(O)c3nc4ccc(C)cc4[nH]3)[nH]c2c1 (configuration not stated),"inconclusive: 8.2 µM [activator, partial curve]",–
O=C(Nc1ccc(Br)cc1)C1CCCN(C2=NS(=O)(=O)c3ccccc32)C1 (configuration not stated),–,inactive: -9.15%
O=C(COC(=O)c1cccs1)Nc1cccc(S(=O)(=O)NC2=NCCCCC2)c1,"inconclusive: 29.1 µM [inhibitor, single point]",–
COc1ccc(NC(=O)CN(C)C(=O)c2cc(-c3ccco3)nc3ccccc23)cc1,active: 18.3 µM,–
O=C(/C=C/c1ccc(Cl)cc1)c1cccnc1,"inconclusive: 29.1 µM [activator, single point]",–
Cn1cccc1/C=N/NC(=O)c1cc(-c2cccs2)nc2ccccc12,"inconclusive: 9.2 µM [inhibitor, partial curve]",–
Cc1cccc(C(C)(C)C)c1OCCCCN1CCCC1,"inconclusive: 20.6 µM [inhibitor, single point]",–

Structure (SMILES),Potency,"activity change, negative = inhibition"
O=C(Nc1ccc2c(c1)N(S(=O)(=O)c1cccs1)CCC2)c1c(F)cccc1Cl,"inconclusive: 20.6 µM [inhibitor, single point]",–
CCS(=O)(=O)Nc1ccc(C2=NN(S(=O)(=O)c3ccc(F)cc3)C(c3ccco3)C2)cc1 (configuration not stated),active: 20.6 µM,–
COc1ccc(Cl)cc1NC(=O)CN(C)CC(=O)Nc1ccc(S(N)(=O)=O)cc1,–,inactive: -16.2%
COc1ccc(NC(=O)CCN2CCN(C/C=C/c3ccccc3)CC2)cc1,–,inactive: -20.4%
COc1ccccc1-c1ccc(SCc2ccccc2F)nn1,"inconclusive: 14.6 µM [activator, partial curve, poor fit]",–
Cc1ccc(C)c(OCCC(=O)Nc2cccc(S(=O)(=O)NC3=NCCCCC3)c2)c1,"inconclusive: 15.8 µM [inhibitor, single point]",–
CCOC(=O)c1cc2n(n1)C(C(F)(F)F)CC(C)N2 (configuration not stated),"inconclusive: 23.1 µM [activator, partial curve]",–
CN1CCN(NC(=O)c2ccc(S(=O)(=O)N3CC4(C)CC3CC(C)(C)C4)cc2)CC1 (configuration not stated),"inconclusive: 25.9 µM [activator, single point]",–
CCc1cc2cc(C(=O)Nc3ccc(F)cc3)sc2s1,"inconclusive: 3.66 µM [activator, full curve]",–
CCOC(=O)c1sc(N)c(C(=O)OC)c1C,"inconclusive: 29.1 µM [activator, single point]",–
O=C(O)c1cccc(OCCN2CCCC2=O)c1,–,inactive: 7.42%
COCCN(Cc1ccccc1)C(=O)c1cccc(S(=O)(=O)N2CCCc3ccccc32)c1,–,inactive: 16.3%
O=C(c1ccc([N+](=O)[O-])o1)N1CCc2ccccc21,–,inconclusive: 23.1% [activator]
Cc1ccc(-c2cc(C(=O)N3CCc4ccccc4C3)no2)cc1,"inconclusive: 29.1 µM [activator, partial curve, poor fit]",–
COc1ccc2c(Cl)c(C(=O)NC3CCS(=O)(=O)C3)sc2c1 (configuration not stated),"inconclusive: 11.2 µM [activator, partial curve]",–
O=c1[nH]nc(Cc2ccc(Cl)cc2Cl)c2ccccc12,–,inactive: -18%
CCCC[n+]1ccc(-c2nc3ccc([N+](=O)[O-])cc3[nH]2)cc1,"inconclusive: 20.6 µM [activator, single point]",–
CCOc1cc(/C=C2\N=C(SC(C)C(N)=O)N(c3ccc(OC(F)F)cc3)C2=O)ccc1O (configuration not stated),"inconclusive: 18.3 µM [inhibitor, partial curve]",–
CN1CCN(c2nc(-c3ccccc3)c3cc(Cl)ccc3n2)CC1,–,inactive: 7.13%
O=[N+]([O-])c1ccc(NC(=S)NCCc2ccccc2)cc1,"inconclusive: 29.1 µM [inhibitor, single point]",–
CCCCNC(=O)Nc1ccccc1C(=O)Nc1ccc(OC)cc1,"inconclusive: 25.9 µM [activator, partial curve, poor fit]",–
CC(C)N(c1ccccc1)c1ccc(NC(=S)NCCN(C)C)cc1,"inconclusive: 29.1 µM [inhibitor, single point]",–
COc1ccc(C(=O)Nc2nc(-c3ccccn3)cs2)cc1S(=O)(=O)N1CCOCC1,active: 4.11 µM,–
COc1cccc(NC(=O)C2=COCCO2)c1,"inconclusive: 5.17 µM [activator, partial curve]",–

# Part of the list above, bar-delimited.
Structure (SMILES) | Potency | activity change, negative = inhibition
O=C(Nc1ccc2c(c1)N(S(=O)(=O)c1cccs1)CCC2)c1c(F)cccc1Cl | inconclusive: 20.6 µM [inhibitor, single point] | –
CCS(=O)(=O)Nc1ccc(C2=NN(S(=O)(=O)c3ccc(F)cc3)C(c3ccco3)C2)cc1 (configuration not stated) | active: 20.6 µM | –
COc1ccc(NC(=O)CCN2CCN(C/C=C/c3ccccc3)CC2)cc1 | – | inactive: -20.4%
COc1ccccc1-c1ccc(SCc2ccccc2F)nn1 | inconclusive: 14.6 µM [activator, partial curve, poor fit] | –
CCOC(=O)c1cc2n(n1)C(C(F)(F)F)CC(C)N2 (configuration not stated) | inconclusive: 23.1 µM [activator, partial curve] | –
CN1CCN(NC(=O)c2ccc(S(=O)(=O)N3CC4(C)CC3CC(C)(C)C4)cc2)CC1 (configuration not stated) | inconclusive: 25.9 µM [activator, single point] | –
CCc1cc2cc(C(=O)Nc3ccc(F)cc3)sc2s1 | inconclusive: 3.66 µM [activator, full curve] | –
CCOC(=O)c1sc(N)c(C(=O)OC)c1C | inconclusive: 29.1 µM [activator, single point] | –
O=C(O)c1cccc(OCCN2CCCC2=O)c1 | – | inactive: 7.42%
COCCN(Cc1ccccc1)C(=O)c1cccc(S(=O)(=O)N2CCCc3ccccc32)c1 | – | inactive: 16.3%
O=C(c1ccc([N+](=O)[O-])o1)N1CCc2ccccc21 | – | inconclusive: 23.1% [activator]
O=c1[nH]nc(Cc2ccc(Cl)cc2Cl)c2ccccc12 | – | inactive: -18%
CCOc1cc(/C=C2\N=C(SC(C)C(N)=O)N(c3ccc(OC(F)F)cc3)C2=O)ccc1O (configuration not stated) | inconclusive: 18.3 µM [inhibitor, partial curve] | –
CN1CCN(c2nc(-c3ccccc3)c3cc(Cl)ccc3n2)CC1 | – | inactive: 7.13%
O=[N+]([O-])c1ccc(NC(=S)NCCc2ccccc2)cc1 | inconclusive: 29.1 µM [inhibitor, single point] | –
CC(C)N(c1ccccc1)c1ccc(NC(=S)NCCN(C)C)cc1 | inconclusive: 29.1 µM [inhibitor, single point] | –

# Next part:

Structure (SMILES),Potency,"activity change, negative = inhibition"
CC1(C)CC(c2nc(-c3ccc([N+](=O)[O-])cc3)cs2)CCO1 (configuration not stated),"inconclusive: 1.03 µM [inhibitor, single point]",–
Cc1cc(NC(=O)c2ccc(N3CCCC3)c([N+](=O)[O-])c2)no1,"inconclusive: 18.3 µM [activator, partial curve, poor fit]",–
CCc1cccc(CC)c1NC(=O)COC(=O)c1ccc2c(c1)S(=O)(=O)c1ccccc1C2=O,–,inactive: 19%
COCCn1c(SCC(=O)N2CCc3ccccc3C2)nc2cc(Cl)ccc2c1=O,active: 23.1 µM,–
Cc1nn(CC(O)Cn2c3c(c4ccccc42)CCN(C)C3=O)c(C)c1Br (configuration not stated),"inconclusive: 32.6 µM [inhibitor, single point]",–
Cc1ccc(NC(=S)Nc2ccc(F)cc2)cc1C,"inconclusive: 18.3 µM [inhibitor, single point]",–
Cc1cc(F)ccc1NCC(=O)Nc1ccc(Br)cc1C,"inconclusive: 23.1 µM [inhibitor, partial curve, poor fit]",–
CC(=O)Nc1cccc(C(=O)/C=C/c2ccc[nH]2)c1,"inconclusive: 18.3 µM [activator, single point]",–
COc1ccc(-c2cnc(N)nc2-c2ccc(OCc3ccccc3)cc2O)cc1,"inconclusive: 18.3 µM [inhibitor, single point]",–
CC1CCc2[nH]c3ccc(C(=O)N4CCCC(C(F)(F)F)C4)cc3c2C1 (configuration not stated),–,inactive: 3.3%
CCS(=O)(=O)N1Cc2ccccc2CC1C(=O)Nc1ncc(C)s1 (configuration not stated),"inconclusive: 16.4 µM [activator, partial curve]",–
COc1ccc(NC(=O)c2c(N)cnn2C)cc1,–,inactive: 22.2%
CC1CCCCN1c1ncnc(N)c1[N+](=O)[O-] (configuration not stated),active: 3.26 µM,–
COc1ccc(OC)c(-c2csc(CCn3nc(C)cc3C)n2)c1,–,inactive: -14.1%
COc1cc(/C=N/NC(=O)c2ccncc2)ccc1OCC(=O)Nc1ccccc1,"inconclusive: 14.6 µM [activator, partial curve]",–
O=C(/C=C/c1ccc2c(c1)OCO2)Nc1ccc(Cl)cn1,"inconclusive: 1.03 µM [activator, full curve]",–
COc1ccc(O)c(C(=O)c2cnc3c(c2)CN(C)C(=O)N3)c1,–,inactive: -18.3%
CC1SC(C)C(=O)N(CC(=O)Nc2ccc([N+](=O)[O-])cc2)C1=O (configuration not stated),–,inactive: -4.38%
Cc1ccc(-n2c(-c3ccccc3)c[n+]3c2CCC3)cc1,active: 1.64 µM,–
S=C1NC2(CCCCC2)NN1c1ccccc1,"inconclusive: 2.06 µM [inhibitor, partial curve, poor fit]",–
CC(C)C12CN3CC(C(C)C)(CN(C1)C3(C)C)C2=O,–,inactive: 4.31%
COc1ccc(/C=C/C(=O)Nc2ccc(-n3nncc3-c3ccccc3)cc2)cc1OC,active: 14.6 µM,–
COc1ccc(/C=C/CN2CCC(n3nccc3NC(=O)C3CC3)CC2)cc1,"inconclusive: 25.9 µM [activator, partial curve, poor fit]",–
CCc1ccc(CCC(=O)Nc2ccc(C)c(C)c2)o1,"inconclusive: 18.4 µM [activator, partial curve]",–
